Data on four molecules can be found in publication PMC10014109.

In test [1] the target is T1, Flag-tagged SLAMF7 (signaling lymphocyte activation molecular family 7), full-length (mouse) (UniProt Q8BHK6).
T1 sequence: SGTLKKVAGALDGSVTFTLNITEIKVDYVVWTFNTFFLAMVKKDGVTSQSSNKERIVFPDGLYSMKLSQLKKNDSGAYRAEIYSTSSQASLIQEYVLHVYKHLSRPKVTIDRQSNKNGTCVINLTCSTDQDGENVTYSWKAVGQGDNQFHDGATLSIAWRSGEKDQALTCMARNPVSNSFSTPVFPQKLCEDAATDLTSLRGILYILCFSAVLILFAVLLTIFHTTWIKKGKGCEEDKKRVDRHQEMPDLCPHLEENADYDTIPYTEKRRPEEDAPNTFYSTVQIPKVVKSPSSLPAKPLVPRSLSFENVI
As to the kind of experiment: co-IP; HEK 293T cells cotransfected with tagged murine constructs; IP from lysate with anti-Flag or anti-HA antibodies, immunoblot. (In western blotting, separated proteins are transferred to a membrane and probed.)

Test [2] deals with T2, SLAMF7, endogenous (mouse (endogenous in RAW264.7)) (UniProt Q8BHK6).
T2 sequence: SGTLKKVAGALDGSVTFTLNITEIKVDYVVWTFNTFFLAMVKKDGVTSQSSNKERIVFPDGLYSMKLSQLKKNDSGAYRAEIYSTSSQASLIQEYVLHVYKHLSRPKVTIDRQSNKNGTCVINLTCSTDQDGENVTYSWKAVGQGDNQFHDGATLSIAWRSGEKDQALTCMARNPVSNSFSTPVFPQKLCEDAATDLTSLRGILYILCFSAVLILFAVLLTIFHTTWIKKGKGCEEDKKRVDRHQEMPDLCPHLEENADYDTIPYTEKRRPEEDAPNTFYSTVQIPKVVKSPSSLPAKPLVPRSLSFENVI
As to the kind of experiment: co-IP; endogenous proteins; lysate of RAW264.7 cells stimulated with LPS; IP with IgG or anti-SLAMF7, immunoblot with anti-TRAF6 or anti-SHIP1.

Results are given in words; binding and its absence hold for the method and conditions named. In cells and extracts the contact can be indirect. Some results given as binding are weak or reduced against the parent protein; the word gives no strength. For some of these results: Tags and fused reporters may be left off the sequences shown.

B1: HA-tagged SHIP1 (Src homology 2-containing inositol-5'-phosphatase 1), full-length (enzyme, UniProt Q9ES52 1-1191)
chain: MPAMVPGWNHGNITRSKAEELLSRAGKDGSFLVRASESIPRAYALCVLFRNCVYTYRILPNEDDKFTVQASEGVPMRFFTKLDQLIDFYKKENMGLVTHLQYPVPLEEEDAIDEAEEDTVESVMSPPELPPRNIPMSAGPSEAKDLPLATENPRAPEVTRLSLSETLFQRLQSMDTSGLPEEHLKAIQDYLSTQLLLDSDFLKTGSSNLPHLKKLMSLLCKELHGEVIRTLPSLESLQRLFDQQLSPGLRPRPQVPGEASPITMVAKLSQLTSLLSSIEDKVKSLLHEGSESTNRRSLIPPVTFEVKSESLGIPQKMHLKVDVESGKLIVKKSKDGSEDKFYSHKKILQLIKSQKFLNKLVILVETEKEKILRKEYVFADSKKREGFCQLLQQMKNKHSEQPEPDMITIFIGTWNMGNAPPPKKITSWFLSKGQGKTRDDSADYIPHDIYVIGTQEDPLGEKEWLELLRHSLQEVTSMTFKTVAIHTLWNIRIVVLAKPEHENRISHICTDNVKTGIANTLGNKGAVGVSFMFNGTSLGFVNSHLTSGSEKKLRRNQNYMNILRFLALGDKKLSPFNITHRFTHLFWLGDLNYRVELPTWEAEAIIQKIKQQQYSDLLAHDQLLLERKDQKVFLHFEEEEITFAPTYRFERLTRDKYAYTKQKATGMKYNLPSWCDRVLWKSYPLVHVVCQSYGSTSDIMTSDHSPVFATFEAGVTSQFVSKNGPGTVDSQGQIEFLACYATLKTKSQTKFYLEFHSSCLESFVKSQEGENEEGSEGELVVRFGETLPKLKPIISDPEYLLDQHILISIKSSDSDESYGEGCIALRLETTEAQHPIYTPLTHHGEMTGHFRGEIKLQTSQGKMREKLYDFVKTERDESSGMKCLKNLTSHDPMRQWEPSGRVPACGVSSLNEMINPNYIGMGPFGQPLHGKSTLSPDQQLTAWSYDQLPKDSSLGPGRGEGPPTPPSQPPLSPKKFSSSTANRGPCPRVQEARPGDLGKVEALLQEDLLLTKPEMFENPLYGSVSSFPKLVPRKEQESPKMLRKEPPPCPDPGISSPSIVLPKAQEVESVKGTSKQAPVPVLGPTPRIRSFTCSSSAEGRMTSGDKSQGKPKASASSQAPVPVKRPVKPSRSEMSQQTTPIPAPRPPLPVKSPAVLQLQHSKGRDYRDNTELPHHGKHRQEEGLLGRTAMQ
In the case of B1, the binding entry in test [1] was “binds”.

B2: SHIP1, endogenous (enzyme, UniProt Q9ES52 1-1191)
chain: MPAMVPGWNHGNITRSKAEELLSRAGKDGSFLVRASESIPRAYALCVLFRNCVYTYRILPNEDDKFTVQASEGVPMRFFTKLDQLIDFYKKENMGLVTHLQYPVPLEEEDAIDEAEEDTVESVMSPPELPPRNIPMSAGPSEAKDLPLATENPRAPEVTRLSLSETLFQRLQSMDTSGLPEEHLKAIQDYLSTQLLLDSDFLKTGSSNLPHLKKLMSLLCKELHGEVIRTLPSLESLQRLFDQQLSPGLRPRPQVPGEASPITMVAKLSQLTSLLSSIEDKVKSLLHEGSESTNRRSLIPPVTFEVKSESLGIPQKMHLKVDVESGKLIVKKSKDGSEDKFYSHKKILQLIKSQKFLNKLVILVETEKEKILRKEYVFADSKKREGFCQLLQQMKNKHSEQPEPDMITIFIGTWNMGNAPPPKKITSWFLSKGQGKTRDDSADYIPHDIYVIGTQEDPLGEKEWLELLRHSLQEVTSMTFKTVAIHTLWNIRIVVLAKPEHENRISHICTDNVKTGIANTLGNKGAVGVSFMFNGTSLGFVNSHLTSGSEKKLRRNQNYMNILRFLALGDKKLSPFNITHRFTHLFWLGDLNYRVELPTWEAEAIIQKIKQQQYSDLLAHDQLLLERKDQKVFLHFEEEEITFAPTYRFERLTRDKYAYTKQKATGMKYNLPSWCDRVLWKSYPLVHVVCQSYGSTSDIMTSDHSPVFATFEAGVTSQFVSKNGPGTVDSQGQIEFLACYATLKTKSQTKFYLEFHSSCLESFVKSQEGENEEGSEGELVVRFGETLPKLKPIISDPEYLLDQHILISIKSSDSDESYGEGCIALRLETTEAQHPIYTPLTHHGEMTGHFRGEIKLQTSQGKMREKLYDFVKTERDESSGMKCLKNLTSHDPMRQWEPSGRVPACGVSSLNEMINPNYIGMGPFGQPLHGKSTLSPDQQLTAWSYDQLPKDSSLGPGRGEGPPTPPSQPPLSPKKFSSSTANRGPCPRVQEARPGDLGKVEALLQEDLLLTKPEMFENPLYGSVSSFPKLVPRKEQESPKMLRKEPPPCPDPGISSPSIVLPKAQEVESVKGTSKQAPVPVLGPTPRIRSFTCSSSAEGRMTSGDKSQGKPKASASSQAPVPVKRPVKPSRSEMSQQTTPIPAPRPPLPVKSPAVLQLQHSKGRDYRDNTELPHHGKHRQEEGLLGRTAMQ
Consider B2, for which the binding entry in test [2] was “binds”.

B3: TRAF6, endogenous (protein, UniProt P70196 1-530)
chain: MSLLNCENSCGSSQSSSDCCAAMAASCSAAVKDDSVSGSASTGNLSSSFMEEIQGYDVEFDPPLESKYECPICLMALREAVQTPCGHRFCKACIIKSIRDAGHKCPVDNEILLENQLFPDNFAKREILSLTVKCPNKGCLQKMELRHLEDHQVHCEFALVNCPQCQRPFQKCQVNTHIIEDCPRRQVSCVNCAVSMAYEEKEIHDQSCPLANIICEYCGTILIREQMPNHYDLDCPTAPIPCTFSVFGCHEKMQRNHLARHLQENTQLHMRLLAQAVHNVNLALRPCDAASPSRGCRPEDPNYEETIKQLESRLVRQDHQIRELTAKMETQSMYVGELKRTIRTLEDKVAEMEAQQCNGIYIWKIGNFGMHLKSQEEERPVVIHSPGFYTGRPGYKLCMRLHLQLPTAQRCANYISLFVHTMQGEYDSHLPWPFQGTIRLTILDQSEALIRQNHEEVMDAKPELLAFQRPTIPRNPKGFGYVTFMHLEALRQGTFIKDDTLLVRCEVSTRFDMGGLRKEGFQPRSTDAGV
As to B3, the binding result in test [2] is “binds”.

B4: HA-tagged TRAF6 (TNF receptor-associated factor 6) (protein, UniProt P70196 1-530)
chain: MSLLNCENSCGSSQSSSDCCAAMAASCSAAVKDDSVSGSASTGNLSSSFMEEIQGYDVEFDPPLESKYECPICLMALREAVQTPCGHRFCKACIIKSIRDAGHKCPVDNEILLENQLFPDNFAKREILSLTVKCPNKGCLQKMELRHLEDHQVHCEFALVNCPQCQRPFQKCQVNTHIIEDCPRRQVSCVNCAVSMAYEEKEIHDQSCPLANIICEYCGTILIREQMPNHYDLDCPTAPIPCTFSVFGCHEKMQRNHLARHLQENTQLHMRLLAQAVHNVNLALRPCDAASPSRGCRPEDPNYEETIKQLESRLVRQDHQIRELTAKMETQSMYVGELKRTIRTLEDKVAEMEAQQCNGIYIWKIGNFGMHLKSQEEERPVVIHSPGFYTGRPGYKLCMRLHLQLPTAQRCANYISLFVHTMQGEYDSHLPWPFQGTIRLTILDQSEALIRQNHEEVMDAKPELLAFQRPTIPRNPKGFGYVTFMHLEALRQGTFIKDDTLLVRCEVSTRFDMGGLRKEGFQPRSTDAGV
For the molecule B4, in test [1], the binding entry was “binds”.
